Measurements reported in PubChem BioAssay AID1259308 (NCATS, 2017).

- Test: 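Genes whose loss raises luciferase production in HEK293 cells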 (primary screen)
- Cell system: human HEK293 embryonic kidney cells stably expressing firefly luciferase (HEK-CMV-Luc2-Hygro)
- Reagent: single siRNA against human genes, 0.8 pmol siRNA per well
- Duration: 72 h
- Measured: 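Luciferase light (ONE-Glo) measured on one replicate plate set and viability (CellTiter-Glo) on the other, scaled to a negative control siRNA, with robust z-scores and luciferase per cell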
- Direction: total luciferase, z-score and total luciferase, % of control: higher = more reporter protein produced; luciferase per cell, z-score: higher = more reporter output per viable cell
- Call rule: 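Active when the median/MAD z-score for overall luciferase is greater than 3; a gene was taken forward for validation with new siRNAs if at least two of its three siRNAs passed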
- Calls: active = raised luciferase; inactive = no rise
Here is an unselected part of about 59,000 reagents. About 1,510 of them (2.6%) were called active. 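Calls use total luciferase alone and ignore viability, so some active siRNAs may act by altering cell number.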 Entries without a mark were called inactive. The numbers tell different reagents against one gene apart. Not all columns of the deposit are shown.

gene knocked down | siRNA no. | total luciferase, z-score | total luciferase, % of control | luciferase per cell, z-score
KCNJ13 | 1 | 0.951 | 101 | 0.89
KCNJ13 | 2 | -0.481 | 72.3 | -0.8
KCNJ13 | 3 | -0.201 | 77.9 | -0.287
DDX60L | 1 | -0.757 | 66.8 | 0.419
DDX60L | 2 | -0.739 | 67.2 | 1.03
DDX60L | 3 | -0.214 | 77.6 | -0.154
MC2R | 1 | 0.437 | 90.6 | 0.212
MC2R | 2 | -1.2 | 58.1 | -1.54
MC2R | 3 | -1.81 | 45.8 | -1.82
GCA | 1 | -0.311 | 75.7 | -0.873
GCA | 2 | -1.13 | 59.5 | -0.573
GCA | 3 | 0.318 | 88.2 | 0.315
SYNCRIP | 1 | -1.87 | 44.6 | -2.4
SYNCRIP | 2 | -0.969 | 62.6 | -0.154
SYNCRIP | 3 | -0.317 | 75.6 | -0.337
PPP1R9A | 1 | 0.731 | 96.4 | 0.335
PPP1R9A | 2 | -1.17 | 58.5 | -1.46
PPP1R9A | 3 | -0.143 | 79 | -0.057
CXCL17 | 1 | 0.598 | 93.8 | 0.381
CXCL17 | 2 | -0.205 | 77.8 | 1.42
CXCL17 | 3 | 0.827 | 98.3 | 2.93

Part of the list above, set out differently.
PPP1R9A #3
- total luciferase, z-score: -0.143
- total luciferase, % of control: 79
- luciferase per cell, z-score: -0.057

CXCL17 #1
- total luciferase, z-score: 0.598
- total luciferase, % of control: 93.8
- luciferase per cell, z-score: 0.381

CXCL17 #2
- total luciferase, z-score: -0.205
- total luciferase, % of control: 77.8
- luciferase per cell, z-score: 1.42

CXCL17 #3
- total luciferase, z-score: 0.827
- total luciferase, % of control: 98.3
- luciferase per cell, z-score: 2.93

The list goes on.
gene knocked down | siRNA no. | total luciferase, z-score | total luciferase, % of control | luciferase per cell, z-score
KIN | 1 | -2.12 | 39.8 | -1.95
KIN | 2 | 0.329 | 88.4 | -0.0272
KIN | 3 | 0.223 | 86.3 | 0.0474
SLCO3A1 | 1 | 0.27 | 87.3 | 0.213
SLCO3A1 | 2 | -0.169 | 78.5 | -0.0825
SLCO3A1 | 3 | 0.137 | 84.6 | -0.254
EXOSC6 | 1 | 0.473 | 91.3 | -0.179
EXOSC6 | 2 | 1.81 | 118 | 1.25
EXOSC6 | 3 | -0.643 | 69.1 | -0.917
CREB3L2 | 1 | 1.85 | 119 | 2.16
CREB3L2 | 2 | -0.946 | 63.1 | -1.46
CREB3L2 | 3 | -0.214 | 77.6 | -0.671
PEAR1 | 1 | 0.915 | 100 | 2.16
PEAR1 | 2 | 1.16 | 105 | 0.539
PEAR1 | 3 | -0.502 | 71.9 | -1.03
BDKRB1 | 1 | 1.16 | 105 | 1.31
BDKRB1 | 2 | 0.266 | 87.2 | -0.00196
BDKRB1 | 3 | -1.7 | 48 | -1.61
